Article PMC10683620

By UniProt entry, the sequences of proteins in these tests, tags left out. Where a name states a change or a piece, a line headed by the entry shows the natural chain unless it says otherwise.
UniProt Q96GD4: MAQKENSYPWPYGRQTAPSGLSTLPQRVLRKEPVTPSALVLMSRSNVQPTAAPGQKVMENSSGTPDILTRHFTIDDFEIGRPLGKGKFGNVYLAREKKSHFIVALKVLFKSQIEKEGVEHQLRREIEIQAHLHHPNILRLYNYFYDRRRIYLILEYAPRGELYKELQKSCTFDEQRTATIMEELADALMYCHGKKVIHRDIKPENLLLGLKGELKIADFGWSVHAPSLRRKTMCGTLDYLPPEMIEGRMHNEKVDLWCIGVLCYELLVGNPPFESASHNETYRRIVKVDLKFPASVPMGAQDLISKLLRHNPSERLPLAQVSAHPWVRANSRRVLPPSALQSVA
UniProt O75367: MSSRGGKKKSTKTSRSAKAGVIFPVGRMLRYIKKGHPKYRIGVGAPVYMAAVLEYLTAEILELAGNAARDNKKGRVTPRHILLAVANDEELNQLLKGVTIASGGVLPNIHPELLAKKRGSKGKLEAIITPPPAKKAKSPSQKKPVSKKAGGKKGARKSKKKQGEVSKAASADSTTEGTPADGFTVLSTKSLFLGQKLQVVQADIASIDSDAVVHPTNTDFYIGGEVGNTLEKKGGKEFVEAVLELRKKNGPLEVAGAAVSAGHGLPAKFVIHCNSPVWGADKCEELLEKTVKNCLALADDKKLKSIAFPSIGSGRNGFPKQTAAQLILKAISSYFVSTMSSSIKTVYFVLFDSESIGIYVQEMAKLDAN
UniProt Q9BSJ2: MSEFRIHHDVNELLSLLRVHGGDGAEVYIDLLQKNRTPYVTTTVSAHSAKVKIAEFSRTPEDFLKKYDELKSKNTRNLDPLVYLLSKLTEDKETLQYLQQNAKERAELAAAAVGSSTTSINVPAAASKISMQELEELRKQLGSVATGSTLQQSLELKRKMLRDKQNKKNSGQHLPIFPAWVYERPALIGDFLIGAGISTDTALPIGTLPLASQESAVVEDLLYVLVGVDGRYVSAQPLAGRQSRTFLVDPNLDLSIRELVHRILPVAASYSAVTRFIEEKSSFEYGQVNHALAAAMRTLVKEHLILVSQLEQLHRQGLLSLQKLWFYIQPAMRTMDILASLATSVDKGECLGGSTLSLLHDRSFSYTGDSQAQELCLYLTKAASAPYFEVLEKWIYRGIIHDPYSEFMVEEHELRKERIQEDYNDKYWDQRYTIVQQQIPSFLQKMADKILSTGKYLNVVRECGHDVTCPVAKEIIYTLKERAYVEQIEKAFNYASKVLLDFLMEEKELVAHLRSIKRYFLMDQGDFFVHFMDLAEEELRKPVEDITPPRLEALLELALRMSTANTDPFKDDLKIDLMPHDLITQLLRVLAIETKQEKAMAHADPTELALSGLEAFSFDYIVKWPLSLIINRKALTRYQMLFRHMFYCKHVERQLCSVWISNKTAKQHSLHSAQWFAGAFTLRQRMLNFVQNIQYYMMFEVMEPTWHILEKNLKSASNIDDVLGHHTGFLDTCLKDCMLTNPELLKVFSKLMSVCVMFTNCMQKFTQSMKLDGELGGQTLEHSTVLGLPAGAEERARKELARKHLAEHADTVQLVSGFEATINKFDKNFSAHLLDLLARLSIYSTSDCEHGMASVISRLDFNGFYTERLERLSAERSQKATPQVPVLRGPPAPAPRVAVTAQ
UniProt Q9ULW0: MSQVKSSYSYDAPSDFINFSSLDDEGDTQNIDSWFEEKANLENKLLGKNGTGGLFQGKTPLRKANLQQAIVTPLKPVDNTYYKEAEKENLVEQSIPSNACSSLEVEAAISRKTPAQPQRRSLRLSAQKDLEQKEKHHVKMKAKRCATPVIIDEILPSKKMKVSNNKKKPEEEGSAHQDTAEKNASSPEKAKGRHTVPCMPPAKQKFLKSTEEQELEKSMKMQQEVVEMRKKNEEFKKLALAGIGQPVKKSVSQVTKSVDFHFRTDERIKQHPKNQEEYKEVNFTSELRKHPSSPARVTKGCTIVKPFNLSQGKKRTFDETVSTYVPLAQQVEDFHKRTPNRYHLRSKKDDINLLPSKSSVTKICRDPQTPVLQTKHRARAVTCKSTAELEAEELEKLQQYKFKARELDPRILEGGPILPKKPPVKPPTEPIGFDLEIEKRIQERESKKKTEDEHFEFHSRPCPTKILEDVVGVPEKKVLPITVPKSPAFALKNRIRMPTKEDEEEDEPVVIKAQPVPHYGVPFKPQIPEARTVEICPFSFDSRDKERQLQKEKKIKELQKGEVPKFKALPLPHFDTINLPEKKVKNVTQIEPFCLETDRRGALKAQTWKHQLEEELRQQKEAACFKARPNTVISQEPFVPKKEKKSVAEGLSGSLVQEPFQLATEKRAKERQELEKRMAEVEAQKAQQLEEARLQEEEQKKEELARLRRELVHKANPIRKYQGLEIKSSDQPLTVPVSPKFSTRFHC
UniProt P46013: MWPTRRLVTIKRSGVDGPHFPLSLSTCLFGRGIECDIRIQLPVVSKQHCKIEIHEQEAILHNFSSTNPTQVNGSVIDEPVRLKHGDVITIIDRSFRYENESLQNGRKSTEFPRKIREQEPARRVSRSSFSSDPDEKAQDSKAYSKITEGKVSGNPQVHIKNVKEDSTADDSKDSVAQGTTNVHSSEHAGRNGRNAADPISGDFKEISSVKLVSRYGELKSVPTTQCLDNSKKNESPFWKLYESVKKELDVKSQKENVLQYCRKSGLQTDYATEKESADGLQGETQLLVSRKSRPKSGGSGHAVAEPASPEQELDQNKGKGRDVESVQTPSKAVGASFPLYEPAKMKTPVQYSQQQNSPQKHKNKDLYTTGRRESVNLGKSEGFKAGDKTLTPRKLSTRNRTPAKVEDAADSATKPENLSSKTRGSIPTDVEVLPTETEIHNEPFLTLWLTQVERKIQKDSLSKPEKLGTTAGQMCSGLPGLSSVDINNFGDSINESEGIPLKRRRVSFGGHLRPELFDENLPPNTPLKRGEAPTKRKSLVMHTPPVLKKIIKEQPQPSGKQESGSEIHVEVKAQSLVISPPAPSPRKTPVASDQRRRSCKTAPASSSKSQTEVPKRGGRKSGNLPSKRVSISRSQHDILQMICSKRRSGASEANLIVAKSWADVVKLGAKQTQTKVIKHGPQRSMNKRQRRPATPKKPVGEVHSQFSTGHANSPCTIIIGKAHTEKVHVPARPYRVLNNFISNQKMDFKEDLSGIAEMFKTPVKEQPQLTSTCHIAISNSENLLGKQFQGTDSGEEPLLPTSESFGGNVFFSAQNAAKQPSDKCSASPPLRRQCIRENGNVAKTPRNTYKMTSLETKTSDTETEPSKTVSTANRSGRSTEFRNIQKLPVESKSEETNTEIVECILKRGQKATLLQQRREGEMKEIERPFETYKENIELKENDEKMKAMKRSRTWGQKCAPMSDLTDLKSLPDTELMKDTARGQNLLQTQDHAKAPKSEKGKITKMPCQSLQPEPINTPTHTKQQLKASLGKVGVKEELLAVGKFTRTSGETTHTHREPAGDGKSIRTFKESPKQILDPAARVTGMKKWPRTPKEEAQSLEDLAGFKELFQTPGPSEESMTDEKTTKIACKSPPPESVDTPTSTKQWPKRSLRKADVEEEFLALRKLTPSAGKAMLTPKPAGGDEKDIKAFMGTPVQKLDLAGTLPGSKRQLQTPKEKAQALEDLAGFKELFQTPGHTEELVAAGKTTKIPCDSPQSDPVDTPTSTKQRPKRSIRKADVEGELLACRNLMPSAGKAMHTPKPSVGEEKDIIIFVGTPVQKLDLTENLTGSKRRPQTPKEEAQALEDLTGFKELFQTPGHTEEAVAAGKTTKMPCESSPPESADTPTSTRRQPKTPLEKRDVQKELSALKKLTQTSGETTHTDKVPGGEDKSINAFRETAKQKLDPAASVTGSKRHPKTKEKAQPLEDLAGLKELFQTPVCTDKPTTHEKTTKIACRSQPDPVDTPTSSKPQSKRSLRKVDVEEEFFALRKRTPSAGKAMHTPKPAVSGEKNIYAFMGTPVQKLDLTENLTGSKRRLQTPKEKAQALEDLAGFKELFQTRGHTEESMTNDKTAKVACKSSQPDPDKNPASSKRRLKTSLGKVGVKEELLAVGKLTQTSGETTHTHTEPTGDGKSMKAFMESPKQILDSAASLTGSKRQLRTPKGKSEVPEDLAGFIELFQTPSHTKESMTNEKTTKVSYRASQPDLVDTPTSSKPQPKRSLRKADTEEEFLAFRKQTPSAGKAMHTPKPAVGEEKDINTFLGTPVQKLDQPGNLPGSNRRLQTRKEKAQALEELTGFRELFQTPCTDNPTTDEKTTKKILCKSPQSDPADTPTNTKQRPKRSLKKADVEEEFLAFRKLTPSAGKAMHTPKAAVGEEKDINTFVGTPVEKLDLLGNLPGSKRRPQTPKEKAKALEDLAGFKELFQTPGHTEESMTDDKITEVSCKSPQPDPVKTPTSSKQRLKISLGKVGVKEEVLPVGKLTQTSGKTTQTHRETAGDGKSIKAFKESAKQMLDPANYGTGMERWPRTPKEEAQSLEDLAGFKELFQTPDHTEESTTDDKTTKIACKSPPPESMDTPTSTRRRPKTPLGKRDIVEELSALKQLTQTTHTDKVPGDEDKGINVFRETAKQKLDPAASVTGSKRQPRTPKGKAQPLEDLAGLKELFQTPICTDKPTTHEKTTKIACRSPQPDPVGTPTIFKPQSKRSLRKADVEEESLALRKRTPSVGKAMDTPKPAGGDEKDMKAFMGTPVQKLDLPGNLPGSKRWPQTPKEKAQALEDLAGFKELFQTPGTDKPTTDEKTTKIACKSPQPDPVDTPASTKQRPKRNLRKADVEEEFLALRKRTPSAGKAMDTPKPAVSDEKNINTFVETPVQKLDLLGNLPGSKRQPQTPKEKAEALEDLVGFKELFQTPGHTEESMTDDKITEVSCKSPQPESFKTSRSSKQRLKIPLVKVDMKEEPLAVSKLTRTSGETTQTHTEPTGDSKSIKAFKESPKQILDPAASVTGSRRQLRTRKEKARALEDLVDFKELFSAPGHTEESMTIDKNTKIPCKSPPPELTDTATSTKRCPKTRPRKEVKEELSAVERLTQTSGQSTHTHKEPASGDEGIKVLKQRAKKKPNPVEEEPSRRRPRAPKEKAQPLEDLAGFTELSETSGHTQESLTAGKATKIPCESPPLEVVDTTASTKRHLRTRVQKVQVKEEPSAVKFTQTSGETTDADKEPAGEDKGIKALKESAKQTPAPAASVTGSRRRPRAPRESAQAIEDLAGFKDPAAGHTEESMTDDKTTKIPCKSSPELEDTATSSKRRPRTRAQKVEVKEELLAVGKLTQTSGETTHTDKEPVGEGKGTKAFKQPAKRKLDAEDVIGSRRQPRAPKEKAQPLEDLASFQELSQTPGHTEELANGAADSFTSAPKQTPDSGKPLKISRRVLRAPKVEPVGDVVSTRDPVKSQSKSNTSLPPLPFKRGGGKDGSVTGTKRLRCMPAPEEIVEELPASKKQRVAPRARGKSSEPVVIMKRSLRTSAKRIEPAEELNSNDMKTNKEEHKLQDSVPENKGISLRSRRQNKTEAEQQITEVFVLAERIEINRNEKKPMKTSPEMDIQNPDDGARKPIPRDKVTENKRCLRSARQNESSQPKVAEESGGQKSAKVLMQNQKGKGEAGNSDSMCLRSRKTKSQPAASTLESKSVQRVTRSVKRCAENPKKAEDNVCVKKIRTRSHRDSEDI

T1: Kinesin-like protein KIFC1 (human (endogenous in EC109)) (UniProt Q9BW19)
T1 sequence: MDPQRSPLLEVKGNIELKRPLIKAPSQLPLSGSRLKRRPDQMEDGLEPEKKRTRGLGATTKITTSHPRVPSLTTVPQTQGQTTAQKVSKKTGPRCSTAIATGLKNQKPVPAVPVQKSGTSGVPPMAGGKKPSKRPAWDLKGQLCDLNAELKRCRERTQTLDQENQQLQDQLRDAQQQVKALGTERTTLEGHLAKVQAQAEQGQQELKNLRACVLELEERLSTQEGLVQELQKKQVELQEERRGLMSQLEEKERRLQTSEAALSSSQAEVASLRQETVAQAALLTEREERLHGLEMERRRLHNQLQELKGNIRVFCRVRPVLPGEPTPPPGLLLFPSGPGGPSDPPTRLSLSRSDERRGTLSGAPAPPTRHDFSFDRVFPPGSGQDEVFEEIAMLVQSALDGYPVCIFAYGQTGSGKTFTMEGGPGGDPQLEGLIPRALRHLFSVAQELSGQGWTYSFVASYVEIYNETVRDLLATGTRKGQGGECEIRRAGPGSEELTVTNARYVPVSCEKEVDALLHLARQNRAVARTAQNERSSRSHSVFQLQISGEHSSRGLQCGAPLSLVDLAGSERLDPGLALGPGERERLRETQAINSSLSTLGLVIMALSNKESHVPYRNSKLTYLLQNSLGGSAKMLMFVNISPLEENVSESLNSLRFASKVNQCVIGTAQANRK

B1: Small kinetochore-associated protein (protein, UniProt Q9Y448 1-316)
chain: MAAPEAPPLDRVFRTTWLSTECDSHPLPPSYRKFLFETQAADLAGGTTVAAGNLLNESEKDCGQDRRAPGVQPCRLVTMTSVVKTVYSLQPPSALSGGQPADTQTRATSKSLLPVRSKEVDVSKQLHSGGPENDVTKITKLRRENGQMKATDTATRRNVRKGYKPLSKQKSEEELKDKNQLLEAVNKQLHQKLTETQGELKDLTQKVELLEKFRDNCLAILESKGLDPALGSETLASRQESTTDHMDSMLLLETLQEELKLFNETAKKQMEELQALKVKLEMKEERVRFLEQQTLCNNQVNDLTTALKEMEQLLEM
B2: ATP-binding cassette sub-family F member 2 (protein, UniProt Q9UG63 1-623)
chain: MPSDLAKKKAAKKKEAAKARQRPRKGHEENGDVVTEPQVAEKNEANGRETTEVDLLTKELEDFEMKKAAARAVTGVLASHPNSTDVHIINLSLTFHGQELLSDTKLELNSGRRYGLIGLNGIGKSMLLSAIGKREVPIPEHIDIYHLTREMPPSDKTPLHCVMEVDTERAMLEKEAERLAHEDAECEKLMELYERLEELDADKAEMRASRILHGLGFTPAMQRKKLKDFSGGWRMRVALARALFIRPFMLLLDEPTNHLDLDACVWLEEELKTFKRILVLVSHSQDFLNGVCTNIIHMHNKKLKYYTGNYDQYVKTRLELEENQMKRFHWEQDQIAHMKNYIARFGHGSAKLARQAQSKEKTLQKMMASGLTERVVSDKTLSFYFPPCGKIPPPVIMVQNVSFKYTKDGPCIYNNLEFGIDLDTRVALVGPNGAGKSTLLKLLTGELLPTDGMIRKHSHVKIGRYHQHLQEQLDLDLSPLEYMMKCYPEIKEKEEMRKIIGRYGLTGKQQVSPIRNLSDGQKCRVCLAWLAWQNPHMLFLDEPTNHLDIETIDALADAINEFEGGMMLVSHDFRLIQQVAQEIWVCEKQTITKWPGDILAYKEHLKSKLVDEEPQLTKRTHNV

Target: T1, Kinesin-like protein KIFC1 (human (endogenous in EC109))
Test: affinity purification with mass spectrometry; Co-IP with anti-KIFC1 antibody against an IgG control, then HPLC-MS; cells treated with nocodazole and released (an estimated 70% in metaphase); cells disrupted physically rather than by detergents (NP40)

binding | Molecule
binds | Aurora B kinase (from UniProt Q96GD4 1-344) (enzyme)
binds | Core histone macro-H2A.1 (from UniProt O75367 1-369)
binds | Filamin-A (from UniProt P21333 1-2647)
binds | Gamma-tubulin complex component (from UniProt Q9BSJ2 1-902)
binds | Highly similar to Targeting protein for Xklp2 (from UniProt Q9ULW0 1-747)
binds | Proliferation marker protein Ki-67 (from UniProt P46013 1-3256)
binds | B1
binds | B2

No constants are given. Whether binding was seen depends on the method and setting. In cells and extracts the contact can be indirect. A yes stands for co-enrichment or nearness to the bait. Other partners may have been found.
